In publication PMC7933275:
Where two headings read alike, the source gives them in different places. Results are given in words; binding and its absence hold for the method and conditions named. Binding seen in cells or lysates may run through a third protein. For part of these data: Tags and fused reporters may be left off the sequences shown.

Protein sequences, listed by entry. Tags and fused reporters are not part of them. Lines headed by an entry give the natural chain unless they say otherwise; changes in a name come on top.
UniProt Q5XUX0: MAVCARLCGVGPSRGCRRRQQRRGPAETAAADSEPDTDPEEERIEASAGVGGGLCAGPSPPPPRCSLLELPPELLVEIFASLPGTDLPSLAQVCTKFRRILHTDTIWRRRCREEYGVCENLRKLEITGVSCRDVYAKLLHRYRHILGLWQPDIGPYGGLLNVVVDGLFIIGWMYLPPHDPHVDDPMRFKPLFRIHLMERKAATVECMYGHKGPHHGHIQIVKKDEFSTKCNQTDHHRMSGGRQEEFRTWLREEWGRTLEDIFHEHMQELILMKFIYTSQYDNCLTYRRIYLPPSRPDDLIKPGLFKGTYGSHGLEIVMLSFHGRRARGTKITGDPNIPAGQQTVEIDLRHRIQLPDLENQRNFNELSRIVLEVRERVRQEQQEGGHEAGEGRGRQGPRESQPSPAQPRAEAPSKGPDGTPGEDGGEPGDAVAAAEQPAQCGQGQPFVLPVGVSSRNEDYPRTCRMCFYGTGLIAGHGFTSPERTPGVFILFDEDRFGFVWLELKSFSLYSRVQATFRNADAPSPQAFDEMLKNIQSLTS
UniProt P35222: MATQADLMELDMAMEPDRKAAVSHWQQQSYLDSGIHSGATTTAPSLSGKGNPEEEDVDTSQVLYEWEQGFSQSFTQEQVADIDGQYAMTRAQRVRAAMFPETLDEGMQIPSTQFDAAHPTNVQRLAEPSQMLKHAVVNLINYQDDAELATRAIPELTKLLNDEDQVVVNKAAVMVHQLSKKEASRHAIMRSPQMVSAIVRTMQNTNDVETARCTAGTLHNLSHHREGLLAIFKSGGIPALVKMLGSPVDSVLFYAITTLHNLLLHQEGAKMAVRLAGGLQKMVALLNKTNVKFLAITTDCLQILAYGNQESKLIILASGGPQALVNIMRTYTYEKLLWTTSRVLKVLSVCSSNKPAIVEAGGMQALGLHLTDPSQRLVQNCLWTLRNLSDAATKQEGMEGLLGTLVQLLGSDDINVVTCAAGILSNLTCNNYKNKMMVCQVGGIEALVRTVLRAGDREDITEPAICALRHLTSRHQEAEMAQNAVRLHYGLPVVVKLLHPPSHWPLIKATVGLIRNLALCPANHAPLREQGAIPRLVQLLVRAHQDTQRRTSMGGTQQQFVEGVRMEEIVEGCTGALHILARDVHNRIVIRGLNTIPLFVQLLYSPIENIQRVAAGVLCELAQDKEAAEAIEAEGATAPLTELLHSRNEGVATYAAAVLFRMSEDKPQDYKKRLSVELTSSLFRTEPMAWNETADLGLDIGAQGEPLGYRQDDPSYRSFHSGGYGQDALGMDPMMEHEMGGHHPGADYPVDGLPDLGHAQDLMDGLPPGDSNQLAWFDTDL
UniProt P63208: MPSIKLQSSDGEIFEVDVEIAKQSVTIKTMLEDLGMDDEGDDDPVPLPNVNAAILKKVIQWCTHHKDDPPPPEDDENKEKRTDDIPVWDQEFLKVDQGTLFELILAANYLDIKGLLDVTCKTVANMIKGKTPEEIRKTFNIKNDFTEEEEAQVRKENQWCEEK

B1: ubiquitin-specific protease 53 (USP53), in hBMSCs of the anti-myc co-IP (protein, UniProt Q70EK8 1-1073)
chain: MAWVKFLRKPGGNLGKVYQPGSMLSLAPTKGLLNEPGQNSCFLNSAVQVLWQLDIFRRSLRVLTGHVCQGDACIFCALKTIFAQFQHSREKALPSDNIRHALAESFKDEQRFQLGLMDDAAECFENMLERIHFHIVPSRDADMCTSKSCITHQKFAMTLYEQCVCRSCGASSDPLPFTEFVRYISTTALCNEVERMLERHERFKPEMFAELLQAANTTDDYRKCPSNCGQKIKIRRVLMNCPEIVTIGLVWDSEHSDLTEAVVRNLATHLYLPGLFYRVTDENAKNSELNLVGMICYTSQHYCAFAFHTKSSKWVFFDDANVKEIGTRWKDVVSKCIRCHFQPLLLFYANPDGTAVSTEDALRQVISWSHYKSVAENMGCEKPVIHKSDNLKENGFGDQAKQRENQKFPTDNISSSNRSHSHTGVGKGPAKLSHIDQREKIKDISRECALKAIEQKNLLSSQRKDLEKGQRKDLGRHRDLVDEDLSHFQSGSPPAPNGFKQHGNPHLYHSQGKGSYKHDRVVPQSRASAQIISSSKSQILAPGEKITGKVKSDNGTGYDTDSSQDSRDRGNSCDSSSKSRNRGWKPMRETLNVDSIFSESEKRQHSPRHKPNISNKPKSSKDPSFSNWPKENPKQKGLMTIYEDEMKQEIGSRSSLESNGKGAEKNKGLVEGKVHGDNWQMQRTESGYESSDHISNGSTNLDSPVIDGNGTVMDISGVKETVCFSDQITTSNLNKERGDCTSLQSQHHLEGFRKELRNLEAGYKSHEFHPESHLQIKNHLIKRSHVHEDNGKLFPSSSLQIPKDHNAREHIHQSDEQKLEKPNECKFSEWLNIENSERTGLPFHVDNSASGKRVNSNEPSSLWSSHLRTVGLKPETAPLIQQQNIMDQCYFENSLSTECIIRSASRSDGCQMPKLFCQNLPPPLPPKKYAITSVPQSEKSESTPDVKLTEVFKATSHLPKHSLSTASEPSLEVSTHMNDERHKETFQVRECFGNTPNCPSSSSTNDFQANSGAIDAFCQPELDSISTCPNETVSLTTYFSVDSCMTDTYRLKYHQRPKLSFPESSGFCNNSLS

Columns and labels:
[1] = target: myc-FBXO31ΔF (FBXO31 with a deletion of the F-box domain) (UniProt Q5XUX0); assay: co-IP; hBMSCs cotransfected with FLAG-β-catenin and myc-FBXO31 or myc-FBXO31ΔF for 48 h, 10 μM MG132 for 6 h; nondenaturing lysis buffer (20 mM Tris-HCl pH 8.0, 137 mM NaCl, 0.5% Nonidet P40, 2 mM EDTA); IP with anti-myc antibodies overnight at 4 °C, protein A/G agarose beads, immunoblot
[2] = target: myc-FBXO31ΔF (FBXO31 with a deletion of the F-box domain) (UniProt Q5XUX0); assay: as above; remark: listed apart in the source

| binding [1] | binding [2] | Molecule |
| --- | --- | --- |
| no binding |  | FLAG-β-catenin (from UniProt P35222 1-781) |
| no binding |  | Skp1, endogenous in hBMSCs (from UniProt P63208 1-163) |
|  | no binding | B1 |
